# Reference: article PMC12040169 (PLOS Biology, 2025)
# The other results are listed elsewhere or left out.
# Tested on: T1, CTL2-GFP (C. trachomatis L2/434/Bu, GFP-expressing)
# T1 construct: L2/434/Bu, GFP-expressing
# Set-up: species or system HeLa; Intracellular C. trachomatis growth in HeLa cells, bulk GFP fluorescence relative to DMSO
# Details: bulk GFP, single well; 28.5 h, 10 µM; inhibitor
row,SMILES,% of control remaining
1,CCN1C(=O)C2(CC(=O)N(CCOC)C2=O)c2cc(Cl)ccc21 (stereo not drawn) [CBK075244],80.0627%
2,COc1cccc(Sc2cc(N3CCCC3)ncn2)c1 [CBK089533],105.123%
3,Cc1cc(CC(=O)N2CCN(c3ncccn3)CC2)on1 [CBK144507],106.785%
4,CC(CC(=O)O)CC(=O)N1CCN(c2ccccn2)CC1 (stereo not drawn) [CBK286839],115.146%
5,Nc1ncc(-c2ccco2)nc1NC1CCOCC1 [CBK063806],115.222%
6,COc1cccc(C(=O)NCCC(=O)N2CCc3ccccc3C2)c1 [CBK307575],153.3%
7,Cc1nn(C)cc1-c1cncn1Cc1ccc2c(c1)CCCO2 [CBK281797],112.201%
8,COc1ccc(C(NC(C)=O)c2nccc3cc(OC)c(OC)cc23)cc1OC (stereo not drawn) [CBK270219],137.741%
9,Cc1nn(-c2ccccc2)c2c1C(C(=O)c1ccc3c(c1)OCO3)CC(=O)N2 (stereo not drawn) [CBK294436],136.979%
10,CCN(CC(=O)NCc1cccnc1)S(=O)(=O)c1ccc(F)cc1 [CBK269503],127.192%
11,O=S(=O)(NC1c2cccc3cccc(c23)C1Sc1ncccn1)c1ccccc1 (stereo not drawn) [CBK264706],91.7662%
12,Cc1cccc(C(=O)Oc2ccc(C(c3c(C)n[nH]c3O)c3c(C)n[nH]c3O)cc2)c1 [CBK264804],124.514%
13,Cc1ccc(S(=O)(=O)N(CC(=O)NCc2ccco2)c2cccc(C)c2)cc1 [CBK264125],110.154%
14,CC1(O)CCN(Cc2nnnn2-c2ccc(S(C)(=O)=O)cc2)CC1 [CBK304166],108.299%
15,Cc1ccc(-c2nnc(CNC(=O)c3cccc(Cl)c3)o2)s1 [CBK284646],154.043%
16,O=C(O)c1ccc(S(=O)(=O)c2ccc(O)cc2)cc1 [CBK261411],96.0951%
17,Cn1cc(-c2nccnc2OCc2ccccn2)cn1 [CBK107067],97.4252%
18,CC(=O)N1CCC(C(=O)NCCc2cccc(C)c2)C1 (stereo not drawn) [CBK281952],105.135%
19,COc1ccc(NC(=O)c2cc3nc(C)ccc3o2)cc1 [CBK287663],108.831%
20,COc1ccc(S(=O)(=O)NC[C@H]2C[C@@H]3CC[N@]2C[C@@H]3CN2CCCCC2)cc1 [CBK288764],127.861%
21,CCC1C(=O)NCCN1C(=O)Cc1cccc2cccnc12 (stereo not drawn) [CBK281728],112.783%
22,c1cncc(Nc2cccc(-c3ccco3)n2)c1 [CBK037742],178.617%
23,Cc1ccc(Nc2nc(N3CCOCC3)nc3nccnc23)cc1 [CBK287664],126.276%
24,CN(C)CCCn1c(=O)[nH]c2sc3c(c2c1=N)CC(C)(C)OC3 [CBK269103],104.744%
25,COc1ccc(NC(=O)N[C@H]2C[C@H]3C(=O)N[C@H](Cc4ccccc4)C(=O)N3C2)cc1 [CBK289227],144.38%
26,CCc1nn(CC(=O)N2CCCC2)c(=O)c2cc3sc(C)cc3n12 [CBK284122],144.227%

row,SMILES,% of control remaining
1,COc1ccc(C(=O)Nc2c(C)nn(-c3ccccc3)c2C)cc1S(=O)(=O)NC1CC1 [CBK297906],129.601%
2,CN(C)CCN(C)C(=O)c1cc(-c2ccc(Cl)cc2)[nH]n1 [CBK115928],100.215%
3,Cc1cc(NS(=O)(=O)c2cc(C(F)(F)F)cc(C(F)(F)F)c2)n(C)n1 [CBK067261],97.4971%
4,Cc1cc(C)n(CCOc2nonc2N)n1 [CBK025818],105.007%
5,O=C(CSCc1c(Cl)cccc1Cl)Nc1cccc(-c2nnc(-c3ccccc3)o2)c1 [CBK267435],125.902%
6,Cc1cccnc1Nc1ccc(C2CCCN(C(=O)Cc3c[nH]c4ccccc34)C2)nc1 (stereo not drawn) [CBK285968],102.03%
7,CCN(CC)C(=O)CN1C(=O)N2CCN=C2c2ccccc21 [CBK283944],119.673%
8,CCOc1ccc(-c2n[nH]c(C(=O)N/N=C3/C(=O)Nc4ccccc43)c2C)cc1 [CBK262889],108.575%
9,Cn1ccnc1C(NC(=O)c1ccccn1)c1ccc(F)c(F)c1 (stereo not drawn) [CBK283783],156.184%
10,Cc1cnc(C(=O)N[C@H]2C3CCCCC3[C@@H]2c2ccccc2)cn1 (stereo partly drawn) [CBK285125],108.592%
11,CCn1cc(C(=O)N2C[C@H](C(=O)OC)[C@@H](c3ccccc3F)C2)cn1 [CBK283510],136.355%
12,O=C(c1ccc(F)cc1)C1CCN(Cc2ccc3ccccc3c2)CC1 [CBK149122],139.308%
13,Cc1ccccc1CSCCNC(=O)Nc1ccc(Cl)cc1 [CBK268669],124.47%
14,CN1CCC(=NNC(=O)c2cc(O)c(O)c(O)c2)CC1 [CBK262660],141.915%
15,c1cncc(COc2cncc(OC3CCNC3)n2)c1 (stereo not drawn) [CBK077419T],124.191%
16,O=S(=O)(c1ccccc1)c1nc(N2CCNCC2)cn2ccnc12 [CBK154875T],154.776%
17,Cc1ccnc(SCC(=O)c2cc(C)n(C3CC3)c2C)n1 [CBK304686],122.688%
18,CCCCN(C)c1c(CC)nc2ccc(C(=O)N3CCNC(=O)C3)cn12 [CBK145460],120.374%
19,CC(=O)Nc1ccc(-c2nc3ccc(-c4nc5ccc(NC(C)=O)cc5[nH]4)cc3[nH]2)cc1 [CBK261165],107.009%
20,CC(=O)Nc1nc(-c2cc3ccccc3oc2=O)cs1 [CBK287312],101.396%
21,CC(C)CC12CN3CCN(CC(C3)/C1=N\N=C1/C3CN4CCN(C3)CC1(CC(C)C)C4)C2 [CBK265036],86.3601%
22,O=S(=O)(Nc1nnn[nH]1)c1cccc2nsnc12 [CBK062379],132.021%
23,CN(C)S(=O)(=O)c1ccc(C(=O)Nc2ccc(N3CCOCC3)c(Cl)c2)cc1 [CBK267383],156.401%
24,Cc1cc(CN2CCCC2)cc(C)c1O [CBK028736C],99.1609%
25,COCOc1ccc(-c2ncc(OC)nc2NC(=O)c2cc3ccccc3s2)cc1 [CBK145250],113.384%

# Among those listed so far, 3 have an aryl thioether with sulfur outside any ring.
row,SMILES,% of control remaining
2,COc1cccc(Sc2cc(N3CCCC3)ncn2)c1 [CBK089533],105.123%
11,O=S(=O)(NC1c2cccc3cccc(c23)C1Sc1ncccn1)c1ccccc1 (stereo not drawn) [CBK264706],91.7662%
17,Cc1ccnc(SCC(=O)c2cc(C)n(C3CC3)c2C)n1 [CBK304686],122.688%
